Measurements reported in PubChem BioAssay AID1259308 (NCATS, 2017)

Aim: 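Knock-downs that increase output of a recombinant reporter protein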 (primary screen)
Cell system: human HEK293 embryonic kidney cells stably expressing firefly luciferase (HEK-CMV-Luc2-Hygro)
Reagents: single siRNA against human genes, 0.8 pmol siRNA per well
Time to read-out: 72 h
Measured: 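Reporter luminescence and viable-cell signal on separate replicate plates, given as percent of non-targeting control and median/MAD z-scores, plus per-cell luciferase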
Scale: total luciferase, z-score: higher = more reporter protein produced
Call rule: 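Active when the median/MAD z-score for overall luciferase is greater than 3; a gene was taken forward for validation with new siRNAs if at least two of its three siRNAs passed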
Calls: active = raised luciferase; inactive = no rise
Shown is an unselected part of about 59,000 reagents. About 1,510 of them (2.6%) count as active. 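Calls use total luciferase alone and ignore viability, so some active siRNAs may act by altering cell number.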 The numbers tell different reagents against one gene apart. Not all columns of the deposit are shown.

With knock-down of LRPPRC (leucine rich pentatricopeptide repeat containing) #1, the screen gave total luciferase, z-score -0.244; inactive. With knock-down of LRPPRC (leucine rich pentatricopeptide repeat containing) #2, the record shows total luciferase, z-score -0.996; inactive. LRPPRC (leucine rich pentatricopeptide repeat containing) #3 gave total luciferase, z-score 0.178; inactive. SLC7A7 #1 gave total luciferase, z-score -0.0369; inactive. With knock-down of SLC7A7 #2 the results were total luciferase, z-score 0.832; inactive. SLC7A7 #3 showed total luciferase, z-score -0.99; inactive.

Quoted from above (2 entries):
SLC7A7 #2 | total luciferase, z-score = 0.832; outcome = inactive
SLC7A7 #3 | total luciferase, z-score = -0.99; outcome = inactive

The results go on.
After knock-down of LOC729683 #1 the results were total luciferase, z-score 1.87; inactive. Against LOC729683 #2 the deposit lists total luciferase, z-score -1.13; inactive. LOC729683 #3 gave total luciferase, z-score -1.75; inactive. With knock-down of OR6F1 (olfactory receptor family 6 subfamily F member 1) #1 the results were total luciferase, z-score 1.48; inactive. OR6F1 (olfactory receptor family 6 subfamily F member 1) #2 gave total luciferase, z-score 0.0458; inactive. After knock-down of OR6F1 (olfactory receptor family 6 subfamily F member 1) #3, the screen gave total luciferase, z-score -0.583; inactive.
